Experimental data: PMC4889105
These are yes or no findings as the source states them, for the method shown. Some binding calls cover weakened binding; strength is not graded here. Tags and fused reporters may be left off the sequences shown.

B1: FLAG-ZNF645 (enzyme, UniProt Q8N7E2 1-425)
chain: MNKMPAGEQECEYNKEGKYYSKGVKLVRKKKKIPGYRWGDIKINIIGEKDDLPIHFCDKCDLPIKIYGRIIPCKHAFCYHCANLYDKVGYKVCPRCRYPVLRIEAHKRGSVFMCSIVQQCKRTYLSQKSLQAHIKRRHKRARKQVTSASLEKVRPHIAPPQTEISDIPKRLQDRDHLSYIPPEQHTMVSLPSVQHMLQEQHNQPHKDIQAPPPELSLSLPFPIQWETVSIFTRKHGNLTVDHIQNNSDSGAKKPTPPDYYPECQSQPAVSSPHHIIPQKQHYAPPPSPSSPVNHQMPYPPQDVVTPNSVRSQVPALTTTYDPSSGYIIVKVPPDMNSPPLRAPQSQNGNPSASEFASHHYNLNILPQFTENQETLSPQFTQTDAMDHRRWPAWKRLSPCPPTRSPPPSTLHGRSHHSHQRRHRRY
B2: FLAG-DCST1 (enzyme, UniProt Q5T197 1-706)
chain: MDIKHHQNGTRGQRRKQPHTTVQRLLTWGLPVSCSWFLWRQPGEFPVTALLLGAGAGGLLAIGLFQLLVNPMNIYEEQKIMFLYSLVGLGAMGWGTSPHIRCASLLLVPKMLGKEGRLFVLGYALAAIYVGPVANLRHNLNNVIASLGCTVELQINNTRAAWRISTAPLRAMFKDLLSSKELLRAETRNISATFEDLDAQVNSETGYTPEDTMDSGETAQGREARQAPASRLHLSTQKMYELKTKLRCSYVVNQAILSCRRWFDRKHEQCMKHIWVPLLTHLLCLPMKFKFFCGIAKVMEVWCRNRIPVEGNFGQTYDSLNQSIRGLDGEFSANIDFKEEKQAGVLGLNTSWERVSTEVRDYVYRQEARLEWALGLLHVLLSCTFLLVLHASFSYMDSYNHDIRFDNIYISTYFCQIDDRRKKLGKRTLLPLRKAEEKTVIFPCKPTIQASEMSNVVRELLETLPILLLLVVLCGLDWALYSIFDTIRHHSFLQYSFRSSHKLEVKVGGDSMLARLLRKTIGALNTSSETVMESNNMPCLPQPVGLDARAYWRAAVPIGLLVCLCLLQAFGYRLRRVIAAFYFPKREKKRILFLYNDLLKKRAAFTKLRRAAILRRERQQKAPRHPLADILHRGCPLLRRWLCRRCVVCQAPETPESYVCRTLDCEAVYCWSCWDDMRQRCPVCTPREELSSSAFSDSNDDTAYAG
B3: FLAG-TRIM65 (enzyme, UniProt Q6PJ69 1-517)
chain: MAAQLLEEKLTCAICLGLYQDPVTLPCGHNFCGACIRDWWDRCGKACPECREPFPDGAELRRNVALSGVLEVVRAGPARDPGPDPGPGPDPAARCPRHGRPLELFCRTEGRCVCSVCTVRECRLHERALLDAERLKREAQLRASLEVTQQQATQAEGQLLELRKQSSQIQNSACILASWVSGKFSSLLQALEIQHTTALRSIEVAKTQALAQARDEEQRLRVHLEAVARHGCRIRELLEQVDEQTFLQESQLLQPPGPLGPLTPLQWDEDQQLGDLKQLLSRLCGLLLEEGSHPGAPAKPVDLAPVEAPGPLAPVPSTVCPLRRKLWQNYRNLTFDPVSANRHFYLSRQDQQVKHCRQSRGPGGPGSFELWQVQCAQSFQAGHHYWEVRASDHSVTLGVSYPQLPRCRLGPHTDNIGRGPCSWGLCVQEDSLQAWHNGEAQRLPGVSGRLLGMDLDLASGCLTFYSLEPQTQPLYTFHALFNQPLTPVFWLLEGRTLTLCHQPGAVFPLGPQEEVLS
B4: FLAG-RNF6 (enzyme, UniProt Q9Y252 1-685)
chain: MNQSRSRSDGGSEETLPQDHNHHENERRWQQERLHREEAYYQFINELNDEDYRLMRDHNLLGTPGEITSEELQQRLDGVKEQLASQPDLRDGTNYRDSEVPRESSHEDSLLEWLNTFRRTGNATRSGQNGNQTWRAVSRTNPNNGEFRFSLEIHVNHENRGFEIHGEDYTDIPLSDSNRDHTANRQQRSTSPVARRTRSQTSVNFNGSSSNIPRTRLASRGQNPAEGSFSTLGRLRNGIGGAAGIPRANASRTNFSSHTNQSGGSELRQREGQRFGAAHVWENGARSNVTVRNTNQRLEPIRLRSTSNSRSRSPIQRQSGTVYHNSQRESRPVQQTTRRSVRRRGRTRVFLEQDRERERRGTAYTPFSNSRLVSRITVEEGEESSRSSTAVRRHPTITLDLQVRRIRPGENRDRDSIANRTRSRVGLAENTVTIESNSGGFRRTISRLERSGIRTYVSTITVPLRRISENELVEPSSVALRSILRQIMTGFGELSSLMEADSESELQRNGQHLPDMHSELSNLGTDNNRSQHREGSSQDRQAQGDSTEMHGENETTQPHTRNSDSRGGRQLRNPNNLVETGTLPILRLAHFFLLNESDDDDRIRGLTKEQIDNLSTRHYEHNSIDSELGKICSVCISDYVTGNKLRQLPCMHEFHIHCIDRWLSENCTCPICRQPVLGSNIANNG
B5: FLAG-MSL2 (enzyme, UniProt Q9HCI7 1-577)
chain: MNPVNATALYISASRLVLNYDPGDPKAFTEINRLLPYFRQSLSCCVCGHLLQDPIAPTNSTCQHYVCKTCKGKKMMMKPSCSWCKDYEQFEENKQLSILVNCYKKLCEYITQTTLARDIIEAVDCSSDILALLNDGSLFCEETEKPSDSSFTLCLTHSPLPSTSEPTTDPQASLSPMSESTLSIAIGSSVINGLPTYNGLSIDRFGINIPSPEHSNTIDVCNTVDIKTEDLSDSLPPVCDTVATDLCSTGIDICSFSEDIKPGDSLLLSVEEVLRSLETVSNTEVCCPNLQPNLEATVSNGPFLQLSSQSLSHNVFMSTSPALHGLSCTAATPKIAKLNRKRSRSESDSEKVQPLPISTIIRGPTLGASAPVTVKRESKISLQPIATVPNGGTTPKISKTVLLSTKSMKKSHEHGSKKSHSKTKPGILKKDKAVKEKIPSHHFMPGSPTKTVYKKPQEKKGCKCGRATQNPSVLTCRGQRCPCYSNRKACLDCICRGCQNSYMANGEKKLEAFAVPEKALEQTRLTLGINVTSIAVRNASTSTSVINVTGSPVTTFLAASTHDDKSLDEAIDMRFDC
B6: FLAG-DZIP3 (enzyme, UniProt Q86Y13 1-1208)
chain: MDSLPDEFFVRHPAVEDQRKEETENKLEKSSGQLNKQENDIPTDLVPVNLLLEVKKLLNAINTLPKGVVPHIKKFLQEDFSFQTMQREVAANSQNGEEIVPALTLRFLITQLEAALRNIQAGNYTAHQINIGYYLTLLFLYGVALTERGKKEDYTEAENKFLVMKMMIQENEICENFMSLVYFGRGLLRCAQKRYNGGLLEFHKSLQEIGDKNDHWFDIDPTEDEDLPTTFKDLLNNFIKTTESNIMKQTICSYLDCERSCEADILKNTSYKGFFQLMCSKSCCVYFHKICWKKFKNLKYPGENDQSFSGKKCLKEGCTGDMVRMLQCDVPGIVKILFEVVRKDEYITIENLGASYRKLISLKITDTDIRPKISLKFNTKDEMPIFKLDYNYFYHLLHIIIISGTDIVRQIFDEAMPPPLLKKELLIHKNVLESYYNHLWTNHPLGGSWHLLYPPNKELPQSKQFDLCLLLALIKHLNVFPAPKKGWNMEPPSSDISKSADILRLCKYRDILLSEILMNGLTESQFNSIWKKVSDILLRLGMMQEDIDKVKENPIENISLDYHQLSVYLGIPVPEIIQRMLSCYQQGIALQSITGSQRIEIEELQNEEEELSPPLMEYNINVKSHPEIQFAEINKDGTSIPSESSTESLKDLQEVKSKQRKKKKTKNKKNKDSKEDQVPYVVEKEEQLRKEQANPHSVSRLIKDDASDVQEDSAMEDKFYSLDELHILDMIEQGSAGKVTTDYGETEKERLARQRQLYKLHYQCEDFKRQLRTVTFRWQENQMQIKKKDKIIASLNQQVAFGINKVSKLQRQIHAKDNEIKNLKEQLSMKRSQWEMEKHNLESTMKTYVSKLNAETSRALTAEVYFLQCRRDFGLLHLEQTEKECLNQLARVTHMAASNLESLQLKAAVDSWNAIVADVRNKIAFLRTQYNEQINKVKQGFALSTLPPVQLPPPPPSPEILMQQFLGRPLVKESFFRPILTVPQMPAVCPGVVSATGQPRAPLMTGIAWALPAPVGDAVPPSAGLRSDPSIMNWERITDRLKTAFPQQTRKELTDFLRKLKDAYGKSLSELTFDEIVCKISQFIDPKKSQSQGKSVSNVNCVSPSHSPSQPDAAQPPKPAWRPLTSQGPATWEGASNPDEEEEEEEPCVICHENLSPENLSVLPCAHKFHAQCIRPWLMQQGTCPTCRLHVLLPEEFPGHPSRQLPKI

Biological target: biotinylated p53 (wild type) (UniProt P04637)
Experiment: AlphaScreen or HTRF; screen of the E3 protein array (258 FLAG-E3s, crude) against biotinylated p53 as bait, conditions as in the model assay, robotic dispensing; signal with p53 divided by signal with biotinylated DHFR; hits: relative value higher than 8

binding, binds:
B1
B2
B3
B4
B5
B6
